Results: publication PMC10165932, “Tripeptides conjugated with thiosemicarbazones: new inhibitors of tyrosinase for cosmeceutical use” (Journal of Enzyme Inhibition and Medicinal Chemistry, 2023)
The match of structure and compound is tentative.

By UniProt entry, the sequences of proteins in these tests, tags left out. Residues count along the entry.
UniProt C7FF04, 1-392 limits assumed: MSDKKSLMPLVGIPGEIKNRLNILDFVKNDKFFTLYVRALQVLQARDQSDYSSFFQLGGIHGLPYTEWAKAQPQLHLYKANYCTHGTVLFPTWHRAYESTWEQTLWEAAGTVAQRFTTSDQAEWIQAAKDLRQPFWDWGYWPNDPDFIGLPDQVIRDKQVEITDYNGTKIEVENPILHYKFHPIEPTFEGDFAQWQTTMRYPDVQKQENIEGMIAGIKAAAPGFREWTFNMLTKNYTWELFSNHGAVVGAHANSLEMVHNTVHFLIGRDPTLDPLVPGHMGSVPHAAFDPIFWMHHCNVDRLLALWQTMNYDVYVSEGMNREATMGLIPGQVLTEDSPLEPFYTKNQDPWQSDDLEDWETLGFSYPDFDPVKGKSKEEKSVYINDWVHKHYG

Tests used:
[1] = test system: B16F0 murine melanoma cell line; assay: Cell proliferation assay (MTT); assay type: cell-based; details: read-out: IC50 of cell proliferation, 48 h, n = 3
Protocol: B16F0 murine melanoma cell line was cultured in DMEM (Biowest, Nuaillé, France) medium supplemented with 100 U/ml streptomycin (Sigma-Aldrich, Taufkirchen, Germany), 100 U/ml penicillin (Sigma-Aldrich, Taufkirchen, Germany), and 10% foetal bovine serum (Sigma-Aldrich, Taufkirchen, Germany). Cells were maintained in 5% CO2 at 37 °C. Cells viability was estimated by MTT colorimetric assay as described by Bellei et al.[51] B16 cells were seeded into 96-well plate (4 × 10^3 cells/well) and incubated in the presence of the investigated compounds at various concentrations (1000, 400, 100, 40, 10, 1, 0.1 μM) for 48 h. Kojic acid and DMSO were used as controls. MTT was added into wells (0.625 mg/ml, Sigma-Aldrich, Taufkirchen, Germany) for the last 4 h. Then lysing buffer was added to dissolve insoluble formazan. The absorbance was measured (λ = 570 nm) using Thermo Lab Multiscan RC microplate reader.

[2] = molecular target: mushroom tyrosinase (Agaricus bisporus, UniProt C7FF04); assay: Tyrosinase inhibition assay (diphenolase activity, L-DOPA substrate); assay type: biochemical; details: L-DOPA 5 mM, n = 3
[3] = test system: B16F0 murine melanoma cell line; assay: Measurement of melanin production in α-MSH-stimulated B16F0 cells; assay type: cell-based; details: for % Of melanogenesis inhibition at a specific inhibitor concentration: B16F0, 48 h; for IC50: read-out: IC50 of melanin production, B16F0, n = 3

SMILES | IC50 [1] | IC50 [2] | % Of melanogenesis inhibition at a specific inhibitor concentration ([3]; 10 µM) | % Of melanogenesis inhibition at a specific inhibitor concentration ([3]; 40 µM) | IC50 [3]
C/C(=N\NC(N)=S)c1ccc(C(=O)O)cc1 | 113 µM | 5.8 µM | 1% | 13% | 126 µM
NC(=S)N/N=C/c1ccc(C(=O)O)cc1 | 114 µM | 5.3 µM | 14% | 30% | 102 µM
